Assay: Proteomics analysis (trypsin digest, LC-MS/MS) of hMSC ghosts and derived CDLs, conditioned or unconditioned by PC3 medium
Parameters: species or system human
Details: LC-MS/MS peak area per protein; for Ratio of expression Cond. CDLs/Cond. Ghosts: CDLs derived from conditioned hMSCs versus conditioned ghosts; for Ratio of expression Cond Ghosts/Ghosts: hMSC ghosts conditioned by PC3 medium versus unconditioned ghosts

| Molecule | Ratio of expression Cond. CDLs/Cond. Ghosts | Ratio of expression Cond Ghosts/Ghosts |
| --- | --- | --- |
| Q6DD88 (protein, UniProt Q6DD88 1-541, looked up, full-length) MLSPQRVAAAASRGADDAMESSKPGPVQVVLVQKDQHSFELDEKALASILLQDHIRDLDVVVVSVAGAFRKGKSFILDFMLRYLYSQKESGHSNWLGDPEEPLTGFSWRGGSDPETTGIQIWSEVFTVEKPGGKKVAVVLMDTQGAFDSQSTVKDCATIFALSTMTSSVQIYNLSQNIQEDDLQQLQLFTEYGRLAMDEIFQKPFQTLMFLVRDWSFPYEYSYGLQGGMAFLDKRLQVKEHQHEEIQNVRNHIHSCFSDVTCFLLPHPGLQVATSPDFDGKLKDIAGEFKEQLQALIPYVLNPSKLMEKEINGSKVTCRGLLEYFKAYIKIYQGEDLPHPKSMLQATAEANNLAAAASAKDIYYNNMEEVCGGEKPYLSPDILEEKHCEFKQLALDHFKKTKKMGGKDFSFRYQQELEEEIKELYENFCKHNGSKNVFSTFRTPAVLFTGIVALYIASGLTGFIGLEVVAQLFNCMVGLLLIALLTWGYIRYSGQYRELGGAIDFGAAYVLEQASSHIGNSTQATVRDAVVGRPSMDKKAQ | 1% | 100% |
| Q9Y6C9 (protein, UniProt Q9Y6C9 1-303, looked up, full-length) MADAASQVLLGSGLTILSQPLMYVKVLIQVGYEPLPPTIGRNIFGRQVCQLPGLFSYAQHIASIDGRRGLFTGLTPRLCSGVLGTVVHGKVLQHYQESDKGEELGPGNVQKEVSSSFDHVIKETTREMIARSAATLITHPFHVITLRSMVQFIGRESKYCGLCDSIITIYREEGILGFFAGLVPRLLGDILSLWLCNSLAYLVNTYALDSGVSTMNEMKSYSQAVTGFFASMLTYPFVLVSNLMAVNNCGLAGGCPPYSPIYTSWIDCWCMLQKEGNMSRGNSLFFRKVPFGKTYCCDLKMLI | 1% | 100% |
| O15460 (protein, UniProt O15460 1-535, looked up, full-length) MKLWVSALLMAWFGVLSCVQAEFFTSIGHMTDLIYAEKELVQSLKEYILVEEAKLSKIKSWANKMEALTSKSAADAEGYLAHPVNAYKLVKRLNTDWPALEDLVLQDSAAGFIANLSVQRQFFPTDEDEIGAAKALMRLQDTYRLDPGTISRGELPGTKYQAMLSVDDCFGMGRSAYNEGDYYHTVLWMEQVLKQLDAGEEATTTKSQVLDYLSYAVFQLGDLHRALELTRRLLSLDPSHERAGGNLRYFEQLLEEEREKTLTNQTEAELATPEGIYERPVDYLPERDVYESLCRGEGVKLTPRRQKRLFCRYHHGNRAPQLLIAPFKEEDEWDSPHIVRYYDVMSDEEIERIKEIAKPKLARATVRDPKTGVLTVASYRVSKSSWLEEDDDPVVARVNRRMQHITGLTVKTAELLQVANYGVGGQYEPHFDFSRNDERDTFKHLGTGNRVATFLNYMSDVEAGGATVFPDLGAAIWPKKGTAVFWYNLLRSGEGDYRTRHAACPVLVGCKWVSNKWFHERGQEFLRPCGSTEVD | 1% | 100% |
| Q53GQ0 (protein, UniProt Q53GQ0 1-312, looked up, full-length) MESALPAAGFLYWVGAGTVAYLALRISYSLFTALRVWGVGNEAGVGPGLGEWAVVTGSTDGIGKSYAEELAKHGMKVVLISRSKDKLDQVSSEIKEKFKVETRTIAVDFASEDIYDKIKTGLAGLEIGILVNNVGMSYEYPEYFLDVPDLDNVIKKMININILSVCKMTQLVLPGMVERSKGAILNISSGSGMLPVPLLTIYSATKTFVDFFSQCLHEEYRSKGVFVQSVLPYFVATKLAKIRKPTLDKPSPETFVKSAIKTVGLQSRTNGYLIHALMGSIISNLPSWIYLKIVMNMNKSTRAHYLKKTKKN | 1% | 100% |
| Q02978 (protein, UniProt Q02978 1-314, looked up, full-length) MAATASAGAGGIDGKPRTSPKSVKFLFGGLAGMGATVFVQPLDLVKNRMQLSGEGAKTREYKTSFHALTSILKAEGLRGIYTGLSAGLLRQATYTTTRLGIYTVLFERLTGADGTPPGFLLKAVIGMTAGATGAFVGTPAEVALIRMTADGRLPADQRRGYKNVFNALIRITREEGVLTLWRGCIPTMARAVVVNAAQLASYSQSKQFLLDSGYFSDNILCHFCASMISGLVTTAASMPVDIAKTRIQNMRMIDGKPEYKNGLDVLFKVVRYEGFFSLWKGFTPYYARLGPHTVLTFIFLEQMNKAYKRLFLSG | 3% | 193% |
| Q07021 (protein, UniProt Q07021 1-282, looked up, full-length) MLPLLRCVPRVLGSSVAGLRAAAPASPFRQLLQPAPRLCTRPFGLLSVRAGSERRPGLLRPRGPCACGCGCGSLHTDGDKAFVDFLSDEIKEERKIQKHKTLPKMSGGWELELNGTEAKLVRKVAGEKITVTFNINNSIPPTFDGEEEPSQGQKVEEQEPELTSTPNFVVEVIKNDDGKKALVLDCHYPEDEVGQEDEAESDIFSIREVSFQSTGESEWKDTNYTLNTDSLDWALYDHLMDFLADRGVDNTFADELVELSTALEHQEYITFLEDLKSFVKSQ | 1% | 100% |
| P08559 (protein, UniProt P08559 1-390, looked up, full-length) MRKMLAAVSRVLSGASQKPASRVLVASRNFANDATFEIKKCDLHRLEEGPPVTTVLTREDGLKYYRMMQTVRRMELKADQLYKQKIIRGFCHLCDGQEACCVGLEAGINPTDHLITAYRAHGFTFTRGLSVREILAELTGRKGGCAKGKGGSMHMYAKNFYGGNGIVGAQVPLGAGIALACKYNGKDEVCLTLYGDGAANQGQIFEAYNMAALWKLPCIFICENNRYGMGTSVERAAASTDYYKRGDFIPGLRVDGMDILCVREATRFAAAYCRSGKGPILMELQTYRYHGHSMSDPGVSYRTREEIQEVRSKSDPIMLLKDRMVNSNLASVEELKEIDVEVRKEIEDAAQFATADPEPPLEELGYHIYSSDPPFEVRGANQWIKFKSVS | 0% | 100% |
| O15260 (protein, UniProt O15260 1-269, looked up, full-length) MGQNDLMGTAEDFADQFLRVTKQYLPHVARLCLISTFLEDGIRMWFQWSEQRDYIDTTWNCGYLLASSFVFLNLLGQLTGCVLVLSRNFVQYACFGLFGIIALQTIAYSILWDLKFLMRNLALGGGLLLLLAESRSEGKSMFAGVPTMRESSPKQYMQLGGRVLLVLMFMTLLHFDASFFSIVQNIVGTALMILVAIGFKTKLAALTLVVWLFAINVYFNAFWTIPVYKPMHDFLKYDFFQTMSVIGGLLLVVALGPGGVSMDEKKKEW | 0% | 100% |
| P11177 (protein, UniProt P11177 1-359, looked up, full-length) MAAVSGLVRRPLREVSGLLKRRFHWTAPAALQVTVRDAINQGMDEELERDEKVFLLGEEVAQYDGAYKVSRGLWKKYGDKRIIDTPISEMGFAGIAVGAAMAGLRPICEFMTFNFSMQAIDQVINSAAKTYYMSGGLQPVPIVFRGPNGASAGVAAQHSQCFAAWYGHCPGLKVVSPWNSEDAKGLIKSAIRDNNPVVVLENELMYGVPFEFPPEAQSKDFLIPIGKAKIERQGTHITVVSHSRPVGHCLEAAAVLSKEGVECEVINMRTIRPMDMETIEASVMKTNHLVTVEGGWPQFGVGAEICARIMEGPAFNFLDAPAVRVTGADVPMPYAKILEDNSIPQVKDIIFAIKKTLNI | 4% | 82% |
| P12110 (protein, UniProt P12110 1-1019, looked up, full-length) MLQGTCSVLLLWGILGAIQAQQQEVISPDTTERNNNCPEKTDCPIHVYFVLDTSESVTMQSPTDILLFHMKQFVPQFISQLQNEFYLDQVALSWRYGGLHFSDQVEVFSPPGSDRASFIKNLQGISSFRRGTFTDCALANMTEQIRQDRSKGTVHFAVVITDGHVTGSPCGGIKLQAERAREEGIRLFAVAPNQNLKEQGLRDIASTPHELYRNDYATMLPDSTEIDQDTINRIIKVMKHEAYGECYKVSCLEIPGPSGPKGYRGQKGAKGNMGEPGEPGQKGRQGDPGIEGPIGFPGPKGVPGFKGEKGEFGADGRKGAPGLAGKNGTDGQKGKLGRIGPPGCKGDPGNRGPDGYPGEAGSPGERGDQGGKGDPGRPGRRGPPGEIGAKGSKGYQGNSGAPGSPGVKGAKGGPGPRGPKGEPGRRGDPGTKGSPGSDGPKGEKGDPGPEGPRGLAGEVGNKGAKGDRGLPGPRGPQGALGEPGKQGSRGDPGDAGPRGDSGQPGPKGDPGRPGFSYPGPRGAPGEKGEPGPRGPEGGRGDFGLKGEPGRKGEKGEPADPGPPGEPGPRGPRGVPGPEGEPGPPGDPGLTECDVMTYVRETCGCCDCEKRCGALDVVFVIDSSESIGYTNFTLEKNFVINVVNRLGAIAKDPKSETGTRVGVVQYSHEGTFEAIQLDDERIDSLSSFKEAVKNLEWIAGGTWTPSALKFAYDRLIKESRRQKTRVFAVVITDGRHDPRDDDLNLRALCDRDVTVTAIGIGDMFHEKHESENLYSIACDKPQQVRNMTLFSDLVAEKFIDDMEDVLCPDPQIVCPDLPCQTELSVAQCTQRPVDIVFLLDGSERLGEQNFHKARRFVEQVARRLTLARRDDDPLNARVALLQFGGPGEQQVAFPLSHNLTAIHEALETTQYLNSFSHVGAGVVHAINAIVRSPRGGARRHAELSFVFLTDGVTGNDSLHESAHSMRKQNVVPTVLALGSDVDMDVLTTLSLGDRAAVFHEKDYDSLAQPGFFDRFIRWIC | 3% | 81% |
| P42765 (protein, UniProt P42765 1-397, looked up, full-length) MALLRGVFVVAAKRTPFGAYGGLLKDFTATDLSEFAAKAALSAGKVSPETVDSVIMGNVLQSSSDAIYLARHVGLRVGIPKETPALTINRLCGSGFQSIVNGCQEICVKEAEVVLCGGTESMSQAPYCVRNVRFGTKLGSDIKLEDSLWVSLTDQHVQLPMAMTAENLAVKHKISREECDKYALQSQQRWKAANDAGYFNDEMAPIEVKTKKGKQTMQVDEHARPQTTLEQLQKLPPVFKKDGTVTAGNASGVADGAGAVIIASEDAVKKHNFTPLARIVGYFVSGCDPSIMGIGPVPAISGALKKAGLSLKDMDLVEVNEAFAPQYLAVERSLDLDISKTNVNGGAIALGHPLGGSGSRITAHLVHELRRRGGKYAVGSACIGGGQGIAVIIQSTA | 2% | 79% |
| Q969X5 (protein, UniProt Q969X5 1-290, looked up, full-length) MPFDFRRFDIYRKVPKDLTQPTYTGAIISICCCLFILFLFLSELTGFITTEVVNELYVDDPDKDSGGKIDVSLNISLPNLHCELVGLDIQDEMGRHEVGHIDNSMKIPLNNGAGCRFEGQFSINKVPGNFHVSTHSATAQPQNPDMTHVIHKLSFGDTLQVQNIHGAFNALGGADRLTSNPLASHDYILKIVPTVYEDKSGKQRYSYQYTVANKEYVAYSHTGRIIPAIWFRYDLSPITVKYTERRQPLYRFITTICAIIGGTFTVAGILDSCIFTASEAWKKIQLGKMH | 8% | 186% |

Reference: patent US11065203B2, “Liposomal compositions and uses of same” (Technion Research & Development Foundation Limited, priority 2009, dated 2021)
